# In the supplement of paper PMC6445147:
# This is a noisy data set.
# B1: human tRNA-Pro; a variant is named by its letters at N, in order (parent)
# chain: GGCTCGTTGGTCTAGNGGTATGATTCTCGCTTAGGGTGCGAGAGGTCCCGGGTTCNNATCCCGGACGAGCCC
# Key:
# [1] = variants of: B1; experiment: tRNA Pol-III promoter activity, log2 (circRNA frequency / plasmid DNA frequency) (log2 ratio); higher = stronger promoter activity; conditions: HEK293T; construct: no Pol-II promoter ((-)CMV library)
# [2] = variants of: B1; experiment: tRNA 3' processing efficiency (processed reads / all reads, maximum-likelihood estimate) (fraction); higher = more efficient 3' processing; conditions: HEK293T; construct: no Pol-II promoter ((-)CMV library)
# [3] = variants of: B1; experiment: tRNA 5' processing efficiency (processed reads / all reads, maximum-likelihood estimate) (fraction); higher = more efficient 5' processing; conditions: HEK293T; construct: CMV Pol-II promoter ((+)CMV library, decapped)
Variant,tRNA Pol-III promoter activity (log2) [1],tRNA 3' processing efficiency [2],tRNA 5' processing efficiency [3]
GAG A58C T59C,5.64,0.38,
GAA T19A A58T,2.5,0.32,0.4
GAA A14G A58C T59A,4.94,0.6,
TAA C55T A58T T59A,5.26,0.2,
GCA T19A T53C,4.94,0.3,
GAA G9A T19A A20C A58T,6.03,0.25,
GAC A14T T59C,4.67,0.4,
CTA A14T,2.31,0.24,
GAA G15C T53G,-0.479,0.25,
GAC A14C G15T G17T,3.36,0.33,
AAC T8C,4.21,0.33,0.25
TAA T53A A58T,3.45,0.3,
GGG C55T,3.63,0.18,
GAT G15C A58G,3.71,0.25,
GAA T8G G18A,-0.0588,0.57,
CAG G17T,6.15,0.07,
GTA A14T T19C,5.03,0.25,
GTA A20G T59C,6.1,0.14,
GAA G15C G18T A20G A58T,5.53,0.33,
TAC A14G,2.81,0.33,
TAG G17T,7.65,0.03,
GGA G17A T59C,3.34,0.33,
TAG T8A A14T,3.68,0.4,

Variant,tRNA Pol-III promoter activity (log2) [1],tRNA 3' processing efficiency [2],tRNA 5' processing efficiency [3]
AAG A20T,5.67,0.5,
GAA C55T A58C,-0.321,0.4,
CGA C55T A58G,6.62,0.5,
GGA G17C T53C,3.4,0.89,
GAA T19A T53G A58G,4.36,0.25,
GTA G15A A58C,3.94,0.25,
GAA T32C T59C,6.03,0.5,
CTA A14C A58T,5.53,0.33,
GTA G17A T19G A58T,5.25,0.2,
GAA A20G T59C,0.884,0.25,
AAA G9A G17T T19A T59G,3.53,0.33,
CAA A14T T53G,0.559,0.33,
TAA A58G T59A,3.73,0.29,
GTC T19A,3.93,0.5,
GAA G15A C55G,-0.408,0.4,
GAA G17A T19C A58T,2.93,0.25,
GGG A20T,2.36,0.78,
TAT G15C,5.22,0.41,
GAA A20T,1.08,0.45,0.4
GAA A14G G18T A20T T53A,6.1,0.22,
GAG T8A G18A,1.56,0.2,
GTT G17T,2.48,0.25,
GGA A14T G18A A58T,6.36,0.4,

Variant,tRNA Pol-III promoter activity (log2) [1],tRNA 3' processing efficiency [2],tRNA 5' processing efficiency [3]
GTA A33T,5.74,0.57,
GTA T8G G15C T53A C55T T59G,4.68,0.4,
TAT A58T,4.52,0.71,
GAA T53A T59G,0.72,0.34,
GTA T8C T19C,5.94,0.7,
GAA T53A T59A,1.98,0.22,0.44
GTA A14G T19A A58C,5.74,0.14,
GGT A58T,3.23,0.38,
GAA A14C G18T T19C,3.36,0.25,
GAA A58G,0.563,0.8,0.26
GAA T8A T53A C55A A58G,4.93,0.17,
GAG T8C A14G,5.25,0.2,
TAA C55T T59G,7.43,0.05,
GAA A14T A58T T59C,3.62,0.17,
GAG A14G T19G,2.78,0.16,
TAC,3.38,0.38,0.4
GAA G9A G17T,-0.852,0.25,
GAA A20T T53A A58G,3.94,0.25,
GAA T8G G15T T53A A58C T59A,5.16,0.71,
GAA A14T G18A,-0.387,0.32,0.2
GAT G9A A58C,2.81,0.33,
CAG T19A,6.25,0.2,
GAA T8C A20G,1.45,0.67,

Variant,tRNA Pol-III promoter activity (log2) [1],tRNA 3' processing efficiency [2],tRNA 5' processing efficiency [3]
GTA G18T T19C A58T,5.16,0.14,
GAA G15T G18A A33G C55A,3.61,0.5,
GAA T8A G18C,2.08,0.75,
GAA G9T A58G,-0.183,0.2,
GGA T8G C55G,2.53,0.5,
GAA A14T A58C T59G,4.94,0.4,0.4
GAA A20C A58G,1.29,0.57,0.14
GAC T19A A20T,3.45,0.25,
GAA A14T G18A T59C,3.34,0.7,
GAA G9A A14C T19A,3.62,0.25,
GAA G9A A14C,1.11,0.29,
GAT T8C G9A,5.94,0.25,
GCA T19A A20T,5.51,0.58,
CTA A20T,2.85,0.25,
GAA G17A T53A A58T,2.76,0.25,
GAA T8G A14C T59G,3.94,0.3,
GTA A14G A58T T59C,5.93,0.25,
TAA T8C T19G,5.4,0.27,
GAA A14C T53C,2.25,0.63,
GAA G9A T19C A58C T59C,7.08,0.18,
GAG A14T A20G,2.34,0.25,
GAA T8A A14G G15C G17A T53A,4.45,0.5,
GAA T53G C55T,0.135,0.71,

Variant,tRNA Pol-III promoter activity (log2) [1],tRNA 3' processing efficiency [2],tRNA 5' processing efficiency [3]
GAA A14T A58G T59C,4.44,0.57,
GAA A20T C55G,0.292,0.22,0.25
GAC A14T A58G,6.34,0.19,
GGA A14T A58T,3.59,0.2,
GGA A14T T53A,3.16,0.17,
GAA A20G A58G,0.994,0.58,0.83
AAC A58C,5.55,0.48,
AAA A20T C55A,3.9,0.6,
GAG G9A A58C,3.61,0.25,
GAT G17C T19A,2.76,0.25,0.25
CAC,2.12,0.24,
TAA T8C A58T,3.27,0.33,
GAA T8G A14T T19C,6.26,0.2,
GAG G18T A20C,4.74,0.14,
GAT T54C,-0.116,0.25,
CAC A58T,3.07,0.33,
GGG A58G,4.21,0.53,
GAA G17T T59G,-0.079,0.38,
GAA G18A C55T,-0.666,0.5,0.2
GGA G17C C55T,5.26,0.2,

# 5 entries from above, tab-delimited.
Variant	tRNA Pol-III promoter activity (log2) [1]	tRNA 3' processing efficiency [2]	tRNA 5' processing efficiency [3]
CAC	2.12	0.24	
TAA T8C A58T	3.27	0.33	
GAA T8G A14T T19C	6.26	0.2	
GAG G18T A20C	4.74	0.14	
GAT T54C	-0.116	0.25	
